# Assay results as given in PubChem BioAssay AID328 (DTP/NCI, 2004).
# The list shows only some results of the screen, not a fair sample: it is rich in T/C values a quarter to a half above the control, in often repeated tests (any T/C) and in doses without a T/C. Further doses and runs are listed elsewhere. T/C gives the treated animals as a percentage of the vehicle group. Some entries give survivors of the animals treated and no T/C: the source holds a T/C of zero for them, seemingly a mark for toxic or unscored doses. Some doses without a T/C left all or most animals alive at the check, yet need not have been tolerated: the source hardly ever lists a survival T/C far under the control, and the zero likely stands for such cases as well. Survivors were counted at the toxicity check, usually on the fifth day, unless a day is given; later deaths do not show. Schedules are NCI's codes, taken here to give the interval after Q, in days (D) or hours (H), and the number of doses after X. Where survival is the endpoint, the PubChem record calls one and a half times the control and up active, and a quarter to a half above the control has no call in these data; cut-offs in other NCI protocols can differ. Some T/C values are followed by the survivors on the day toxicity was checked, most often the fifth; without a count, all were alive then. Some entries were tested several times; the results are listed from low to high.
# Test system: BDF1 mice, P388 leukemia ip, median survival T/C
# Test: NCI In Vivo Anticancer Drug Screen. Data for tumor model P388 Leukemia (intraperitoneal) in B6D2F1 (BDF1) mice
# Conditions: T/C endpoint: median survival time, higher T/C = longer survival
# Method in brief: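 Antitumour effect was judged in vivo: survival in drug-treated mice, normalised to that of vehicle-dosed controls, gives the reported T/C.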
# [1] = dose: 50.0 mg/kg/injection, schedule: Q01DX001 (ip), vehicle: Klucel (hydroxypropylcellulose) (HPC)
# [2] = dose: 100.0 mg/kg/injection, schedule: Q04DX003 (ip), vehicle: saline with Tween-80
# [3] = dose: 50.0 mg/kg/injection, schedule: Q01DX009 (ip), vehicle: saline with Tween-80
# [4] = dose: 50.0 mg/kg/injection, schedule: Q01DX009 (ip), vehicle: Klucel (hydroxypropylcellulose) (HPC)
# [5] = dose: 200.0 mg/kg/injection, schedule: Q04DX003 (ip), vehicle: saline with Tween-80
smiles,measurement,setting,value
Nc1ncn(C2CC(O)C(CO)O2)c(=O)n1 (configuration not stated),T/C,"dose: 0.05 mg/kg/injection, schedule: Q01DX009 (ip), vehicle: Klucel (hydroxypropylcellulose) (HPC)",138 % of control
same,T/C,"dose: 0.1 mg/kg/injection, schedule: Q01DX009 (ip), vehicle: Klucel (hydroxypropylcellulose) (HPC)",138 % of control
same,T/C,"dose: 0.1 mg/kg/injection, schedule: Q01DX009 (ip), vehicle: saline",137 % of control [5 of 6 alive]
same,T/C,"dose: 0.2 mg/kg/injection, schedule: Q01DX009 (ip), vehicle: saline",134 % of control [4 of 6 alive]
same,survivor count,"dose: 1.6 mg/kg/injection, schedule: Q01DX009 (ip), vehicle: Klucel (hydroxypropylcellulose) (HPC)",6 of 6
same,survivor count,"dose: 6.25 mg/kg/injection, schedule: Q01DX009 (ip), vehicle: saline",6 of 6
same,survivor count,"dose: 12.5 mg/kg/injection, schedule: Q01DX009 (ip), vehicle: saline",6 of 6
same,survivor count,"dose: 25.0 mg/kg/injection, schedule: Q01DX009 (ip), vehicle: saline",6 of 6
same,T/C,"dose: 25.0 mg/kg/injection, schedule: Q04DX003 (ip), vehicle: saline",140 % of control
C/C(=C\C(=O)O)CC(=O)O,survivor count,"dose: 400.0 mg/kg/injection, schedule: Q04DX003 (ip), vehicle: water",0 of 6
CC(C)CSc1nc(N)nc2nc[nH]c12,survivor count,"dose: 400.0 mg/kg/injection, schedule: Q04DX003 (ip), vehicle: saline with Tween-80",0 of 6
CNC(=O)OCc1c(-c2ccccc2)nc2sccn12,T/C,[1],126 % of control
C[C@H](N)[C@H](O)c1cccc(O)c1,survivor count,"dose: 50.0 mg/kg/injection, schedule: Q01DX005 (ip), vehicle: saline",3 of 5
same,survivor count,"dose: 100.0 mg/kg/injection, schedule: Q01DX005 (ip), vehicle: saline",3 of 5
same,survivor count,"dose: 200.0 mg/kg/injection, schedule: Q01DX005 (ip), vehicle: saline",2 of 5
C=C1C(=O)O[C@@H]2C[C@@H](C)[C@@H]3[C@@H](OC4OC(COC(C)=O)C(O)C(O)C4O)CC(=O)[C@@]3(C)C[C@H]12 (some centres not stated),T/C,"dose: 35.0 mg/kg/injection, schedule: Q01DX009 (ip), vehicle: saline",138 % of control
COC(=O)NC1C(C)C=CC(C)C1I (configuration not stated),survivor count,[2],6 of 6
Cc1ccc(Nc2nc(N)nc(N)c2N)cc1Cl,survivor count,[3],6 of 6
same,survivor count,"dose: 75.0 mg/kg/injection, schedule: Q01DX009 (ip), vehicle: saline with Tween-80",6 of 6
COc1cc([C@@H]2c3cc4c(cc3C(Br)[C@H]3COC(=O)[C@H]23)OCO4)cc(OC)c1OC (some centres not stated),survivor count,"dose: 60.0 mg/kg/injection, schedule: Q01DX009 (ip), vehicle: Klucel (hydroxypropylcellulose) (HPC)",8 of 10
CC1CC(C)(C)C2=NCCN21 (configuration not stated),survivor count,"dose: 200.0 mg/kg/injection, schedule: Q01DX009 (ip), vehicle: water",0 of 6
same,survivor count,"dose: 400.0 mg/kg/injection, schedule: Q01DX009 (ip), vehicle: water",0 of 6
same,survivor count,"dose: 800.0 mg/kg/injection, schedule: Q01DX009 (ip), vehicle: water",0 of 6
same,survivor count,"dose: 1600.0 mg/kg/injection, schedule: Q01DX009 (ip), vehicle: water",0 of 6
O=C(CC(NC(=O)OCc1ccccc1)C(=O)O)OCc1ccccc1 (configuration not stated),T/C,"dose: 176.0 mg/kg/injection, schedule: Q04DX003 (ip), vehicle: saline with Tween-80",127 % of control
O=C1C=C(O/C=C/C(C(F)(F)F)C(F)(F)F)C(=O)c2ccccc21,T/C,"dose: 25.0 mg/kg/injection, schedule: Q01DX009 (ip), vehicle: saline with Tween-80",127 % of control
same,T/C,[3],145 % of control [5 of 6 alive]
C=CCSc1nc2ccccc2c(=O)n1-c1cc(OC)c(Cl)cc1OC,survivor count,"dose: 200.0 mg/kg/injection, schedule: Q01DX009 (ip), vehicle: Klucel (hydroxypropylcellulose) (HPC)",6 of 6
O=C(CCl)c1ccc(O)c(O)c1,survivor count,"dose: 18.0 mg/kg/injection, schedule: Q04DX003 (ip), vehicle: saline with Tween-80",5 of 6
same,T/C,"dose: 25.0 mg/kg/injection, schedule: Q01DX009 (ip), vehicle: Klucel (hydroxypropylcellulose) (HPC)",126 and 135 % of control [5 of 6 alive]
same,T/C,[4],138 % of control
same,survivor count,[4],0 of 6
same,T/C,"dose: 60.0 mg/kg/injection, schedule: Q01DX001 (ip), vehicle: saline",136 % of control [5 of 6 alive]
same,T/C,"dose: 90.0 mg/kg/injection, schedule: Q01DX001 (ip), vehicle: saline",131 % of control
same,survivor count,"dose: 100.0 mg/kg/injection, schedule: Q01DX009 (ip), vehicle: Klucel (hydroxypropylcellulose) (HPC)",1 of 6
same,survivor count,"dose: 150.0 mg/kg/injection, schedule: Q01DX009 (ip), vehicle: Klucel (hydroxypropylcellulose) (HPC)",0 of 6
CCOC(=O)CCC(C)(C#N)c1ccccc1 (configuration not stated),survivor count,"dose: 100.0 mg/kg/injection, schedule: Q01DX009 (ip), vehicle: saline with Tween-80",6 of 6
same,survivor count,"dose: 200.0 mg/kg/injection, schedule: Q01DX009 (ip), vehicle: saline with Tween-80",6 of 6
O=C(Nc1cc(Cl)cc(Cl)c1)C(Cl)Cl,survivor count,"dose: 400.0 mg/kg/injection, schedule: Q01DX010 (ip), vehicle: carboxymethylcellulose (CMC)",5 of 6
NC(CCC(=O)NNc1ccccc1)C(=O)O (configuration not stated),survivor count,"dose: 60.0 mg/kg/injection, schedule: Q01DX009 (ip), vehicle: saline with Tween-80",7 of 7
O=C(NO)c1ccc([N+](=O)[O-])cc1,T/C,"dose: 400.0 mg/kg/injection, schedule: Q01DX010 (ip), vehicle: water",127 and 136 % of control
same,survivor count,"dose: 530.0 mg/kg/injection, schedule: Q01DX010 (ip), vehicle: water",5 of 6
same,survivor count,"dose: 800.0 mg/kg/injection, schedule: Q01DX010 (ip), vehicle: water",0 of 6
O=C1CN(Cc2ccc(Cl)cc2)CC(=O)N2CCCN12,survivor count,"dose: 100.0 mg/kg/injection, schedule: Q01DX005 (ip), vehicle: saline with Tween-80",5 of 5
same,survivor count,"dose: 200.0 mg/kg/injection, schedule: Q01DX005 (ip), vehicle: saline with Tween-80",5 of 5
C(#CCN1CCCC1)CCCN1CCCC1,survivor count,[5],0 of 6
FC(F)(F)c1nc2nc(Cl)c(Cl)nc2[nH]1,T/C,"dose: 40.0 mg/kg/injection, schedule: Q01DX009 (ip), vehicle: other",125 and 136 % of control
same,survivor count,"dose: 60.0 mg/kg/injection, schedule: Q01DX009 (ip), vehicle: other",4 of 6
same,T/C,"dose: 66.0 mg/kg/injection, schedule: Q04DX003 (ip), vehicle: other",136 % of control
same,survivor count,"dose: 80.0 mg/kg/injection, schedule: Q01DX009 (ip), vehicle: other",0 of 6
same,survivor count,"dose: 150.0 mg/kg/injection, schedule: Q04DX003 (ip), vehicle: other",2 of 6
Cc1nc(N)c2nc(SCc3ccc(Cl)cc3)c(N)nc2n1,survivor count,[2],6 of 6
C=CCC(CC)C(=O)Cl (configuration not stated),T/C,[2],125 % of control
same,T/C,[5],127 % of control
Nc1nc(=S)c2[nH]c(N=Nc3ccc(S(=O)(=O)Nc4nccs4)cc3)nc2[nH]1,T/C,"dose: 12.5 mg/kg/injection, schedule: Q01DX001 (ip), vehicle: Klucel (hydroxypropylcellulose) (HPC)",130 % of control
same,T/C,[1],147 % of control
N=C(N)c1nn(C2OC(CO)C(O)C2O)c2ncnc(N)c12 (configuration not stated),T/C,"dose: 20.0 mg/kg/injection, schedule: Q04DX003 (ip), vehicle: saline",131 % of control
same,T/C,"dose: 40.0 mg/kg/injection, schedule: Q01DX009 (ip), vehicle: saline, evaluated on day 22",133 % of control [5 of 6 alive]
same,T/C,"dose: 40.0 mg/kg/injection, schedule: Q01DX009 (ip), vehicle: saline, evaluated on day 30",125 % of control
same,T/C,"dose: 40.0 mg/kg/injection, schedule: Q04DX003 (ip), vehicle: saline",127 % of control
same,survivor count,"dose: 60.0 mg/kg/injection, schedule: Q01DX009 (ip), vehicle: saline",2 of 6
same,T/C,"dose: 80.0 mg/kg/injection, schedule: Q04DX003 (ip), vehicle: saline",127 % of control
